This assay concerns the target WDR60 (human) (UniProt Q8WVS4). As to the kind of experiment: affinity purification with mass spectrometry; SF-TAP-tagged bait overexpressed in HEK293T; lysis in 0.5% NP-40 in TBS (30 mM Tris-HCl pH 7.4, 150 mM NaCl); two steps at 4 °C: Strep-Tactin superflow (desthiobiotin elution), then anti-FLAG M2 agarose (FLAG peptide elution); LC-MS/MS; interactions scored by socioaffinity.

Chains of the proteins cited; added tags and fusions are not shown.
UniProt Q8WVS4: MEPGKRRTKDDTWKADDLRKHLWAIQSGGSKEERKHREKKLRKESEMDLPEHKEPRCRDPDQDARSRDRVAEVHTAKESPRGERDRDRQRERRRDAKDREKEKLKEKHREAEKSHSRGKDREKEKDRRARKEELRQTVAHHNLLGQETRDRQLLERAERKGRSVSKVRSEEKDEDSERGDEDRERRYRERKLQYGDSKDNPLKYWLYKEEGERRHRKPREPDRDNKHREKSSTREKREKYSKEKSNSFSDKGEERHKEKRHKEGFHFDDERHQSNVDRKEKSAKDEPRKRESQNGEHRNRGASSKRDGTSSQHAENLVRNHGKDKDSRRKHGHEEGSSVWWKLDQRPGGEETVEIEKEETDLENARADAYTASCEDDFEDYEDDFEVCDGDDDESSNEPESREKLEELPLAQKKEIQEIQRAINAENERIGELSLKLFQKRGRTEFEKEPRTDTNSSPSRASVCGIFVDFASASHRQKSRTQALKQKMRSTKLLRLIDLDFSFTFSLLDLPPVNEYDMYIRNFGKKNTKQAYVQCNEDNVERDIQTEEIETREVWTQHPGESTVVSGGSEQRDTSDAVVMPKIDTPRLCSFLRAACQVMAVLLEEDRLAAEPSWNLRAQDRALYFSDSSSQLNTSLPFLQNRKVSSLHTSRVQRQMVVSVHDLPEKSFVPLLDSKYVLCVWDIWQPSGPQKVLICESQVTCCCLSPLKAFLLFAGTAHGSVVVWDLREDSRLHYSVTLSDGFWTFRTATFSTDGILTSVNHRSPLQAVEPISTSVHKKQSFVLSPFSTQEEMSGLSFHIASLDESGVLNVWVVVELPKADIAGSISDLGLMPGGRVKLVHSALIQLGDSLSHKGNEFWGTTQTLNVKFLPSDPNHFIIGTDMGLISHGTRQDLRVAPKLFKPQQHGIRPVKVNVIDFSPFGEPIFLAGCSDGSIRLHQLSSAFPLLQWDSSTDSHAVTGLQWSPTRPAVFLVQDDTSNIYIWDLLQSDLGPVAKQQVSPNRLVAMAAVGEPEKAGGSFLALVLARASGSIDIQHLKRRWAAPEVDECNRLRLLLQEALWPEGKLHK
UniProt Q9Y266: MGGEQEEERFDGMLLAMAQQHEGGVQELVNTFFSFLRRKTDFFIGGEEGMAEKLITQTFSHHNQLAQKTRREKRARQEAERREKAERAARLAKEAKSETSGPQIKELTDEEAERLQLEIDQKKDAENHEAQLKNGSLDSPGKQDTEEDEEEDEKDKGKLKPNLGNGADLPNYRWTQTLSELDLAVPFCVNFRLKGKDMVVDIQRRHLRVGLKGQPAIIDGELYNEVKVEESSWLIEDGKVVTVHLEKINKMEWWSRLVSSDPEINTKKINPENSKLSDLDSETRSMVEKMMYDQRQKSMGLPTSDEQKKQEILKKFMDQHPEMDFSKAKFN

No constants are given. Whether binding was seen depends on the method and setting. In cells and extracts the contact can be indirect. Here binding means that the protein was enriched with, or labelled near, the bait; the list need not be complete.

In the case of NUDC (from UniProt Q9Y266 1-331), the binding result is on record as “binds”.

Source of the values: PMC4869170.
